Laboratory results from patent US6916782B1, “Gene coding for heliomicine and use thereof” (priority 1998, dated 2005).
Not every detail of the peptide structures is certain; ends, links or a residue may be inferred. Bridge positions count the residues as written; N and C are the ends. Ends that are not written are not given here.

Columns and labels:
Bacillus megaterium = experiment: Antibacterial activity, inhibition of growth in liquid medium (MIC); type: cell-based; settings: 25° C., 12 to 24 hours, ND: no activity detected
Aerococcus viridans = experiment: as above; type: cell-based; settings: 25° C., 12 to 24 hours, ND: no activity detected
Neurospora crassa = settings: range [a]-[b], ND: no activity detected
Fusarium culmorum = settings: range [a]-[b], ND: no activity detected
Botrytis cinerea = experiment: Stability of the activity of heliomicine after incubation with crude plant extracts; type: in vitro ADME; settings: incubated up to 20 h at 30° C. with crude extract of maize, wheat, barley, rape, soyabean, sunflower, tomato or tobacco; visual reading on Botrytis cinerea after 12 h and 24 h
Nectria haematococca = settings: range [a]-[b], ND: no activity detected
Micrococcus luteus = experiment: Antibacterial activity, inhibition of growth in liquid medium (MIC); type: cell-based; settings: 25° C., 12 to 24 hours, ND: no activity detected

| Sequence | MIC for the mutants of heliomicine (Bacillus megaterium) [µM] | MIC for the mutants of heliomicine (Aerococcus viridans) [µM] | MIC for the mutants of heliomicine (Neurospora crassa) [µM] | MIC for the mutants of heliomicine (Fusarium culmorum) [µM] | Loss of antifungal activity after exposure to crude plant extracts (stability to plant proteases) (Botrytis cinerea) | MIC for the mutants of heliomicine (Nectria haematococca) [µM] | MIC for the mutants of heliomicine (Micrococcus luteus) [µM] |
| --- | --- | --- | --- | --- | --- | --- | --- |
| AAAAGSCVWGAVNYTSDCNGECKRRGYKGGHCGSFANVNCWCET (disulfide 7-32, 18-40, 22-42) [A6A7A8A9] | 6.2 to 12.5 | 12.5 to 25 | 1.6 to 3.1 | 3.1 to 6.2 |  |  |  |
| DKLIGSCVWGAVNYTSDCNGECKRRGYKGGHCGSFANVNCWCET (disulfide 7-32, 18-40, 22-42) [heliomicine] |  |  | 0.1 to 0.2 |  | no significant loss of antifungal activity | 0.4 to 0.8 |  |
| DKLIGSCVWGAVNYTSDCNGECKRRGYKGGHCGSFANVNCWCRT (disulfide 7-32, 18-40, 22-42) [R48] |  |  | 0.4 to 0.8 | 0.4 to 0.8 |  | 0.4 to 0.8 | 25 to 50 |
| DKLIGSCVWGAVNYTSDCNGECLLRGYKGGHCGSFANVNCWCET (disulfide 7-32, 18-40, 22-42) [L28L29] | 50 to 100 |  | 0.8 to 1.6 | 3.1 to 6.2 |  | 3.1 to 6.2 | 12.5 to 25 |
| DKLIGSCVWGAVNYTSDCNGECLLRGYKGGHCGSFANVNCWCRT (disulfide 7-32, 18-40, 22-42) [L28L29R48] |  |  | 0.8 to 1.6 | 0.8 to 1.6 |  | 0.8 to 1.6 |  |
